Results are given in words; binding and its absence hold for the method and conditions named. For some of these results: In cells and extracts the contact can be indirect. Some entries that bind do so weakly or less than the wild type.
Experiments:
[1] = target: BCL-6 corepressor (BCoR) from the BCoR expression vector (UniProt Q6W2J9); experiment: co-IP; HEK293 cells transfected with the BCoR expression vector; immunoprecipitated with an anti-BCoR antibody; western blot
[2] = target: Factor that binds to the inducer of short transcripts of human immunodeficiency virus-1 (FBI-1), FLAG-tagged (human) (UniProt O95365); experiment: co-IP; HEK293 cells transfected with the expression vectors (Figure 5B); lysates (20 mM Tris-HCl pH 7.5, 150 mM NaCl, 10% glycerol, 1% Triton X-100) immunoprecipitated, western blot; precipitating antibody not given
[3] = target: methyl-CpG-binding domain protein 3 (MBD3), endogenous (human (endogenous in HEK293)) (UniProt O95983); experiment: co-IP; nuclear extracts of control and doxycycline-induced stable HEK293-TREx-FLAG-FBI-1 cells; anti-FLAG M2 agarose beads (IgG beads as control) or, in reverse, an antibody against MBD3; western blot
[4] = target: Factor that binds to the inducer of short transcripts of human immunodeficiency virus-1 (FBI-1), FLAG-tagged (human) (UniProt O95365); experiment: co-IP; HEK293 cells transfected with the FBI-1 and/or MBD3 expression vector; immunoprecipitated with an anti-FBI-1 antibody; western blot
[5] = target: Factor that binds to the inducer of short transcripts of human immunodeficiency virus-1 (FBI-1), FLAG-tagged (human) (UniProt O95365); experiment: ChIP-reChIP; formaldehyde-fixed HEK293 chromatin; first ChIP with anti-FBI-1 or anti-MBD3 antibody, diluted 10 times, second ChIP with the other antibody; PCR of the proximal CDKN1A promoter; ectopic expression or knock-down of FBI-1 or MBD3

The chains behind the UniProt entries cited, without tags or fusion partners. Where a name states a change or a piece, a line headed by the entry shows the natural chain unless it says otherwise. A line that says so, or that is headed by a name, gives the form on record, which may keep a tag or linker.
UniProt Q6W2J9: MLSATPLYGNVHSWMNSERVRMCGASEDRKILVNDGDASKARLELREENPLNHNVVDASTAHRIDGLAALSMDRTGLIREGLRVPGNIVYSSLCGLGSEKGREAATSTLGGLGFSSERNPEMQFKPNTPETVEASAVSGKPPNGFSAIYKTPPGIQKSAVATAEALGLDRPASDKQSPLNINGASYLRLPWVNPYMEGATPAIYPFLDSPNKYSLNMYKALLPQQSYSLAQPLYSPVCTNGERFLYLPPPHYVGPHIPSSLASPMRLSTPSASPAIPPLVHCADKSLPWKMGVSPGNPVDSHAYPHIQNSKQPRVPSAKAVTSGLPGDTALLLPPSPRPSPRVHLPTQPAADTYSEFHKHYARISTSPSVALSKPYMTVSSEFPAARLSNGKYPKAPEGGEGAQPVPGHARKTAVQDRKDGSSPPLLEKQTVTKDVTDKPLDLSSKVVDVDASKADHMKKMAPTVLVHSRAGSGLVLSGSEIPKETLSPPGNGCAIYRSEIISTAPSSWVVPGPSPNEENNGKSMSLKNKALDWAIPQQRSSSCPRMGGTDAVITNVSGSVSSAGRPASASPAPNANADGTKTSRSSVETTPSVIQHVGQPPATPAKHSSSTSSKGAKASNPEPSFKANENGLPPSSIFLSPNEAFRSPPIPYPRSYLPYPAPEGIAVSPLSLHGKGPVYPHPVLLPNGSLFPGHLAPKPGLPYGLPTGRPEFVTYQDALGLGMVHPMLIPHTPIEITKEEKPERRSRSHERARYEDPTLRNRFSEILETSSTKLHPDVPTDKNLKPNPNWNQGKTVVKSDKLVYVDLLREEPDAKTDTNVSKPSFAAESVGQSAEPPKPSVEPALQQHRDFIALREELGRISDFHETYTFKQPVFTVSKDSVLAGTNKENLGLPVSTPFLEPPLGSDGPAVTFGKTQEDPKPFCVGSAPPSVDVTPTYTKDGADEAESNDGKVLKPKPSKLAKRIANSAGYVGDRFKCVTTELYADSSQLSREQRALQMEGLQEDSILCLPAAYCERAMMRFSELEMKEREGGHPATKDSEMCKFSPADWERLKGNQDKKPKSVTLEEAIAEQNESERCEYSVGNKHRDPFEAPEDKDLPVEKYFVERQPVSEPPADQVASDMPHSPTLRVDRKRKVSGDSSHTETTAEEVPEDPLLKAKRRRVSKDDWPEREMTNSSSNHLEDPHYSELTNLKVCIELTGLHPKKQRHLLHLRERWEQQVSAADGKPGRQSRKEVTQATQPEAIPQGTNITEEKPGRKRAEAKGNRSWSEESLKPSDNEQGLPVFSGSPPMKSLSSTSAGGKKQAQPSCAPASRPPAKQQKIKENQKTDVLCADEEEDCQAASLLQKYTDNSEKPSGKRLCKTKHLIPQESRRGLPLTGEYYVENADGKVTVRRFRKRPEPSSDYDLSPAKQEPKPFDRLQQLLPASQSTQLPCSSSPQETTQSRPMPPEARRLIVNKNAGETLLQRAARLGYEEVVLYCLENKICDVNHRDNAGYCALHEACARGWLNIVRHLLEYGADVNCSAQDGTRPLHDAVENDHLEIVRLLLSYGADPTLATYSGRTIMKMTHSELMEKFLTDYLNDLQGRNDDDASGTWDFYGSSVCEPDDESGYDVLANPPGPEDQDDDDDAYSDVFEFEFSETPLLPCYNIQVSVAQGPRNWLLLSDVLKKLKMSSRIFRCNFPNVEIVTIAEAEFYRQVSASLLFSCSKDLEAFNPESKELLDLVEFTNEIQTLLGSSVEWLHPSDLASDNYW
UniProt O95365: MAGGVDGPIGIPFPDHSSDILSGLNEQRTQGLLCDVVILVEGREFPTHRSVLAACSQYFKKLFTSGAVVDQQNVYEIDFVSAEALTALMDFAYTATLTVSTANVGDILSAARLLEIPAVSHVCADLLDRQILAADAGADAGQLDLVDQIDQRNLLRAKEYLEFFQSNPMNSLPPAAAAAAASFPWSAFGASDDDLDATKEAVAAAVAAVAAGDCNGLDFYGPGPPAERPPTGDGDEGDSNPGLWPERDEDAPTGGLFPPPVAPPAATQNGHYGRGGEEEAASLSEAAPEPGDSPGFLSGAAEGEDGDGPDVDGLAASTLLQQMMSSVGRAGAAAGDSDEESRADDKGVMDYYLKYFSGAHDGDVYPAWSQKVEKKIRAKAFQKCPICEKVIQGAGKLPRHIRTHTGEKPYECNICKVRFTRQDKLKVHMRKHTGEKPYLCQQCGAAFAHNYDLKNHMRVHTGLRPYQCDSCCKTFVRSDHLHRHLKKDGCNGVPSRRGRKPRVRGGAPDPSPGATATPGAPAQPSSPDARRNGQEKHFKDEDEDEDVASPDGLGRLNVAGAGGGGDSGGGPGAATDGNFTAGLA
UniProt O95983: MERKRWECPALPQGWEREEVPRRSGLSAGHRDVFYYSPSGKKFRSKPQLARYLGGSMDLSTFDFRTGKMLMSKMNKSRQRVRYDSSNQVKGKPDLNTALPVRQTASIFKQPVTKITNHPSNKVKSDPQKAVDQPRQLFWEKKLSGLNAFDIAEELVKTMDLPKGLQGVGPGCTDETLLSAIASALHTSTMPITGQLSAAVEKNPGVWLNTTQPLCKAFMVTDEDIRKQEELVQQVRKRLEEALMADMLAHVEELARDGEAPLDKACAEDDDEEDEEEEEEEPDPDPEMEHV
MBD3 expressed from pcDNA3.1-MBD3 (O95983-2, form named): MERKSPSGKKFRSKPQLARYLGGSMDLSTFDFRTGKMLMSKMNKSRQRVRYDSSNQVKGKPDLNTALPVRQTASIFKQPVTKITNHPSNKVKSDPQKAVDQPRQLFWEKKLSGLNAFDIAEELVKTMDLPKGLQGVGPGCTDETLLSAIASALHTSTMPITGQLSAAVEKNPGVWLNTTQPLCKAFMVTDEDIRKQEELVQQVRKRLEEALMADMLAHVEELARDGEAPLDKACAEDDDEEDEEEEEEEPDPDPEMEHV
UniProt Q13547: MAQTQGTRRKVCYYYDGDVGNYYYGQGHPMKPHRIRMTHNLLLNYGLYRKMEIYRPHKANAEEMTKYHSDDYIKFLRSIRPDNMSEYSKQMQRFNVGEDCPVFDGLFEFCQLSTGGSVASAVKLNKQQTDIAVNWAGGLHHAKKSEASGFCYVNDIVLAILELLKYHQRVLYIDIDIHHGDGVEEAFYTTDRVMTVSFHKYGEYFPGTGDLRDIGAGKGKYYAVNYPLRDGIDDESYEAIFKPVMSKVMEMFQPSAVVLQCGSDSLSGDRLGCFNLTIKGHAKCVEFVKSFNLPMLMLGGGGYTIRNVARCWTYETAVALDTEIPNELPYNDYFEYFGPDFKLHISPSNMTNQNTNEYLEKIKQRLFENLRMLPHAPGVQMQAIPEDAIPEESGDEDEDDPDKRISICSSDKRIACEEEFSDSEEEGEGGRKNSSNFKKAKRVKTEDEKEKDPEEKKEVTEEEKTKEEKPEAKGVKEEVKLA

Substance	binding [1]	binding [2]	further results
HDAC1 (from UniProt Q13547 1-482) (enzyme)	binds		
BCL-6 corepressor (BCoR) in the co-IP of Figure 5B (from UniProt Q6W2J9 1-1755)		binds	
Factor that binds to the inducer of short transcripts of human immunodeficiency virus-1 (FBI-1), FLAG-tagged (from UniProt O95365 1-584)			binding [3]: binds
FBI-1, endogenous (from UniProt O95365 1-584)	binds		
MBD3 expressed from pcDNA3.1-MBD3 (from UniProt O95983-2 1-259)		binds	binding [4]: binds; binding [5]: binds

— article PMC3711425
